Source: the supplement of paper PMC10849652
Some of the results follow.

Chains of the proteins cited; added tags and fusions are not shown. Lines headed by an entry give the natural chain unless they say otherwise; changes in a name come on top.
UniProt O95260: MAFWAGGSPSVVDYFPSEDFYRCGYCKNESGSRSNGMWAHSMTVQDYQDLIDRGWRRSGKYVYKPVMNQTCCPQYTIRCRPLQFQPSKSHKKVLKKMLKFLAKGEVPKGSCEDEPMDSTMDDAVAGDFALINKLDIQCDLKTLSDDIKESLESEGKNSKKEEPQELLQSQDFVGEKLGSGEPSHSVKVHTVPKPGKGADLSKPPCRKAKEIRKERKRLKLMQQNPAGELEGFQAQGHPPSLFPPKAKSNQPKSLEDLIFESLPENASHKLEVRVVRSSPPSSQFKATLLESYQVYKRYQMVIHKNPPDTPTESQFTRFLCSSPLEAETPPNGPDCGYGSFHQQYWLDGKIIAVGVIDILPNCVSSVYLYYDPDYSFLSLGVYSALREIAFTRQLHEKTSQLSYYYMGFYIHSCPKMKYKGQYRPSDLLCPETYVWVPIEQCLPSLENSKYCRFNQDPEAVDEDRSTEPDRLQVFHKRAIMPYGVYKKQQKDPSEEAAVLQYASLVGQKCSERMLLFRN
UniProt Q9Y689: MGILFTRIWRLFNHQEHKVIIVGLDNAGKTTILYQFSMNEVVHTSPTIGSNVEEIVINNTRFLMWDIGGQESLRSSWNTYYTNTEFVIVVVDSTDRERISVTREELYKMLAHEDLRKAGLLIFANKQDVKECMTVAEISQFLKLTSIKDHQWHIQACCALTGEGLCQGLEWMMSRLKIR
UniProt Q15041, whole entry, looked up: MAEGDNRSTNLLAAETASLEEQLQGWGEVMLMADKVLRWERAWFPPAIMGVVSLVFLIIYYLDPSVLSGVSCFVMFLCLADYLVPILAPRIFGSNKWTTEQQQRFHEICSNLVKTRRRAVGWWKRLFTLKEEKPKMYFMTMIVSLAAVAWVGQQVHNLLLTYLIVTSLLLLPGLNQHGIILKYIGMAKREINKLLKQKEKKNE
UniProt Q96BM9: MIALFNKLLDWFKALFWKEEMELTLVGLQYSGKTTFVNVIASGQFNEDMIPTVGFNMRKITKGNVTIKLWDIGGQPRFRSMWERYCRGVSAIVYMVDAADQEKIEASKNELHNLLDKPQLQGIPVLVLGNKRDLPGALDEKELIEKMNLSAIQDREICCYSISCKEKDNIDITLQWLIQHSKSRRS
UniProt O75787, whole entry, looked up: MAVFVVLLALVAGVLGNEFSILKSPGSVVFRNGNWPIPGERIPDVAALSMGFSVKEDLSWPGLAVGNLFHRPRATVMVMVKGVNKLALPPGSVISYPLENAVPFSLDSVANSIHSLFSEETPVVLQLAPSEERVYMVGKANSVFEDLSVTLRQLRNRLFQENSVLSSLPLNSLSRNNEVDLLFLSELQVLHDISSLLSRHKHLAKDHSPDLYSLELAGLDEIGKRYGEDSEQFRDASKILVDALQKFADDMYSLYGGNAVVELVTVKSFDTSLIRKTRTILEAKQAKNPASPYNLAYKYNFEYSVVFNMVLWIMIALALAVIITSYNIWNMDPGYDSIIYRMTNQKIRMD
UniProt P54709, whole entry, looked up: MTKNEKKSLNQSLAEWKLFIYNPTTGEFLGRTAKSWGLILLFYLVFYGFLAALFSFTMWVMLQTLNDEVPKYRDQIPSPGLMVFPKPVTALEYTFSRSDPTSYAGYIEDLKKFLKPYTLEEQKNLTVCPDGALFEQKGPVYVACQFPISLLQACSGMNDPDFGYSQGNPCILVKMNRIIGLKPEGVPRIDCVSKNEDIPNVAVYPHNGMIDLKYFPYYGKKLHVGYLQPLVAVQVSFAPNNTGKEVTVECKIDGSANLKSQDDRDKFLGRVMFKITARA
UniProt P36542: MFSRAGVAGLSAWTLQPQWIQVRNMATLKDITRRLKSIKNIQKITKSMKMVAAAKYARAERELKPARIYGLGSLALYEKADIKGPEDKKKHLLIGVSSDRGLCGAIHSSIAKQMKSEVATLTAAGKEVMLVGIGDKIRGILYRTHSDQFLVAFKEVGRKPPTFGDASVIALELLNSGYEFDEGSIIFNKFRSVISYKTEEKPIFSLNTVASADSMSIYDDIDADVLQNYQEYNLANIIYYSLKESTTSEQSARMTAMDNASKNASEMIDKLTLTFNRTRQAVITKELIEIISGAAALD
UniProt Q8IXJ9: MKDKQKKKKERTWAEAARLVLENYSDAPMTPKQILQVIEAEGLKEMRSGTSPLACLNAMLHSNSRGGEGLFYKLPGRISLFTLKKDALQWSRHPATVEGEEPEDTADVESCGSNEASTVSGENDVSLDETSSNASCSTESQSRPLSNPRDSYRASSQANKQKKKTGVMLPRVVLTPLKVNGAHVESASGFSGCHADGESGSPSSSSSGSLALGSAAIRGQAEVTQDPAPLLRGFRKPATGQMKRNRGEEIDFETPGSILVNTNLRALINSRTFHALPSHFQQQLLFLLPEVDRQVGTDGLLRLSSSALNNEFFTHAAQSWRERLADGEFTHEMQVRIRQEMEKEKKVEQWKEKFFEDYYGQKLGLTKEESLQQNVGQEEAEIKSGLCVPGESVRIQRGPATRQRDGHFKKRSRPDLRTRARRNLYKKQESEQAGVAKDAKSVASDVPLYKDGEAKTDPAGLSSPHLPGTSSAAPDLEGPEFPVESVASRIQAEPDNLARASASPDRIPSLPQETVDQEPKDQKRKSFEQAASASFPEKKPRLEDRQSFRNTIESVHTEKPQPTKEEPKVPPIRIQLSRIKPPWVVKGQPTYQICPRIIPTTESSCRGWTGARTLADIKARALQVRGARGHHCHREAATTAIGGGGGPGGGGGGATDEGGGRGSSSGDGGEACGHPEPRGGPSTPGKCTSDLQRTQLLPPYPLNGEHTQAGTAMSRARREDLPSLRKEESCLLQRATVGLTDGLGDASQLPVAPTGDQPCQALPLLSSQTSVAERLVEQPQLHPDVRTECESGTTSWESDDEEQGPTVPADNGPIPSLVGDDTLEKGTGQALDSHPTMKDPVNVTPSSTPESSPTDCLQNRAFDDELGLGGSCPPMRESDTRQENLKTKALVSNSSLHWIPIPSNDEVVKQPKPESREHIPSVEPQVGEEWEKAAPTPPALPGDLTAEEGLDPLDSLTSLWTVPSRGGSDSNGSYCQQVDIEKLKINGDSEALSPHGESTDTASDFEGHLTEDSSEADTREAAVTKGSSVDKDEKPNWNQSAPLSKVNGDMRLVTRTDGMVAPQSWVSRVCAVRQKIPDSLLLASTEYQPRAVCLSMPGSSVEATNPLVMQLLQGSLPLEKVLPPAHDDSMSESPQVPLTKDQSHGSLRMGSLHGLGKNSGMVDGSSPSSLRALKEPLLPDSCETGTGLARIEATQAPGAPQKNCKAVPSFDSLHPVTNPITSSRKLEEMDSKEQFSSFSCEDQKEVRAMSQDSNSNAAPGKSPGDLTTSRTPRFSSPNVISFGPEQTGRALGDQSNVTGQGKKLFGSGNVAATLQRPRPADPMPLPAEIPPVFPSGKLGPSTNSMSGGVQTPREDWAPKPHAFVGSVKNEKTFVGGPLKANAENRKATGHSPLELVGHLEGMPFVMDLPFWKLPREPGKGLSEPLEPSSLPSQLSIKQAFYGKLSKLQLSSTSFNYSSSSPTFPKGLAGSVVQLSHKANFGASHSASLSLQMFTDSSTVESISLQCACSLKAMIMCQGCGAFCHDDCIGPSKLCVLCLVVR
UniProt Q8NHH9: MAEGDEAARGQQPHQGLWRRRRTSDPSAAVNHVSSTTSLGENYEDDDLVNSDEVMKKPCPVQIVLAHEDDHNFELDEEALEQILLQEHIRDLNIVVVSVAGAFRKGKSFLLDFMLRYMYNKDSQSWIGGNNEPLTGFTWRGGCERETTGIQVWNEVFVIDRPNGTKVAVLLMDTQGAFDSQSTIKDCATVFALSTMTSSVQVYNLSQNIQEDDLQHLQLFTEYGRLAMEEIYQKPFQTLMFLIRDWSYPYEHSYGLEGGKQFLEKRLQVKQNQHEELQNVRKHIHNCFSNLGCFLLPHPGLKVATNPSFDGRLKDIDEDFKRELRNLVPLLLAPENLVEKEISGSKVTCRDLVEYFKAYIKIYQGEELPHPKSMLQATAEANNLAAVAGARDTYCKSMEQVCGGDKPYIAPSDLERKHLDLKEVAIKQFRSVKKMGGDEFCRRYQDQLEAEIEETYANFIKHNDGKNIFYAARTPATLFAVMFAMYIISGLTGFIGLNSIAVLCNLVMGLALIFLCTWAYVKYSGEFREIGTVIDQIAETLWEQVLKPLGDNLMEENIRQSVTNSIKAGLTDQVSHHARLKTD
UniProt Q01814: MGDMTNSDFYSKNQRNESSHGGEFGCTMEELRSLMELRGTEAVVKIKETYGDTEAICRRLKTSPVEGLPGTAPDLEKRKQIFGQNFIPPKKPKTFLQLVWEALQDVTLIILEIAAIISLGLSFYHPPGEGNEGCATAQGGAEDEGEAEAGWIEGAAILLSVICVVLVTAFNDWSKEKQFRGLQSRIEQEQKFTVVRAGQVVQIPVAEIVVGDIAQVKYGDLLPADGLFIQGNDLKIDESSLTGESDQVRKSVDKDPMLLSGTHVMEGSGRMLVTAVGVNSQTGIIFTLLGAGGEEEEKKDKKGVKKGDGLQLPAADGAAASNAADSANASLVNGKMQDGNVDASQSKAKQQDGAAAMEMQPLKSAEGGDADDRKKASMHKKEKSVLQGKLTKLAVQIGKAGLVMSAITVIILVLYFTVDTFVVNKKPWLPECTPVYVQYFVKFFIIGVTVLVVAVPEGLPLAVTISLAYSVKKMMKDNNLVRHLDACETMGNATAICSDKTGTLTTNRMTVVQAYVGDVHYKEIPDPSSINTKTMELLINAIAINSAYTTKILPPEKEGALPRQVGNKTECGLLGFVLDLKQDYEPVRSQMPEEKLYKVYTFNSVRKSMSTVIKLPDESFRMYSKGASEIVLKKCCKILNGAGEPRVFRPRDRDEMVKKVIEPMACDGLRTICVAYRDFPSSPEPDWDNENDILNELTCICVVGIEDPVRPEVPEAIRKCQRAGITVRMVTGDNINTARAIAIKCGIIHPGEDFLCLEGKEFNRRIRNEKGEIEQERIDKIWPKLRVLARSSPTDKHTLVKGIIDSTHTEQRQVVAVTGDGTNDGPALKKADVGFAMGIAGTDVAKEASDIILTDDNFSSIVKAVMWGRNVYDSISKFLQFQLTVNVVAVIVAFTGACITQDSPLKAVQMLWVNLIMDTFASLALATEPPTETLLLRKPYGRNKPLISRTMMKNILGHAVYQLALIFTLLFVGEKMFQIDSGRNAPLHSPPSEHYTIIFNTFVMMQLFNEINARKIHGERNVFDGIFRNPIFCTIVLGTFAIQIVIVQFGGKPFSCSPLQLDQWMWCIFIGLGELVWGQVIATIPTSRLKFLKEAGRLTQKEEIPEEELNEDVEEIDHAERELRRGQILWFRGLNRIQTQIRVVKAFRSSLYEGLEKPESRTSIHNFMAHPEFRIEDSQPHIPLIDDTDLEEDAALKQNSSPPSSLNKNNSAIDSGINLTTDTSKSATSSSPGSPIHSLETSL
UniProt Q3SXY8: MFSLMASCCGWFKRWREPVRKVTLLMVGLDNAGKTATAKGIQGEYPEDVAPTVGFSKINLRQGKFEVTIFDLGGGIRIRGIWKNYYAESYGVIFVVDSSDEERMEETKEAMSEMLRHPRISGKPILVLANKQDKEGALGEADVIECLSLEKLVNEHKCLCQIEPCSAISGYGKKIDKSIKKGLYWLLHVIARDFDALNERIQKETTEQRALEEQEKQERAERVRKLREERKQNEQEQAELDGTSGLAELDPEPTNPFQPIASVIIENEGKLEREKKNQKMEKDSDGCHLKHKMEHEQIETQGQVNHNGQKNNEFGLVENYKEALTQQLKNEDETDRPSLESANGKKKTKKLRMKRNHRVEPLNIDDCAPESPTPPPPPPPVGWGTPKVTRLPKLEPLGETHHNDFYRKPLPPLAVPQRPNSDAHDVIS
UniProt Q12797: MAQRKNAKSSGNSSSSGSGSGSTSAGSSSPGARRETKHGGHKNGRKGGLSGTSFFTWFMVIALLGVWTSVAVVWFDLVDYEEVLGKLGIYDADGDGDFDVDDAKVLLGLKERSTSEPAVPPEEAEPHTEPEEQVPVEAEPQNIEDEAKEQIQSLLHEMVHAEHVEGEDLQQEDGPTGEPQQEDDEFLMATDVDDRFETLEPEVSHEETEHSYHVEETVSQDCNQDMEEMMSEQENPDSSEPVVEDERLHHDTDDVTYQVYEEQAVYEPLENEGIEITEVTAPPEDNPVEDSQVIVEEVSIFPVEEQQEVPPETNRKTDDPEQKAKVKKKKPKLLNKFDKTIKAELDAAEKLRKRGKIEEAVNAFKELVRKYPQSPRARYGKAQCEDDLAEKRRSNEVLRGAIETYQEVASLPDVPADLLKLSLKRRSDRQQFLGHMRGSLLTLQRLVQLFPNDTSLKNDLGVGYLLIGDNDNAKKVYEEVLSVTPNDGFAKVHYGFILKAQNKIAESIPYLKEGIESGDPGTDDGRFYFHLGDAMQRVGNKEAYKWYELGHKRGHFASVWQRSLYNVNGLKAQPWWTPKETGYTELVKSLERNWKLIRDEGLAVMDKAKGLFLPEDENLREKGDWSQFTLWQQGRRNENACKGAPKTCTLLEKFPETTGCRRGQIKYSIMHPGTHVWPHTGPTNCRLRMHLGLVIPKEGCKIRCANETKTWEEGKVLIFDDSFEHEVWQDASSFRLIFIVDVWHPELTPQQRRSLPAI

Experiments:
Test in all cases: log2 fold change, soluble protein after heating vs DMSO (PISA); higher = thermal stabilisation; K562 cells, 10 uM, 30 min; active = over 0.2 and 3.5 SD of the protein, either way, in both replicates (recomputed)
[1] = compound: C1=CC=C(C=C1)[C@H](COC2=CC3=C(C=C2)NC(=O)N3)NC(=O)C4=CC=CN(C4=O)CC5=CC(=C(C=C5)F)F
In short: (§1)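 K562 cells at 2×10^6 cells/mL were exposed to 10 μM compound for 30 min, then aliquots were heated for 3 min across 48°C-58°C, pooled, and extracted in PBS containing 0.5% NP-40 at 4°C. The supernatant after 21,000xg for 90 min was taken as soluble protein and measured by TMTpro 16plex LC-MS/MS with channel sums equalised. Thermal stability is reported relative to control samples, with values from duplicates. Fold changes are given on a log2 scale.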

[2] = compound: CC1=C2C(=CC=C1)N=C(N(C2=O)C3=CC=CC=C3C)CN4C=NC5=C(N=CN=C54)N
In short: as §1

[3] = compound: Cc1sc2c(c1C)C(c1ccc(Cl)cc1)=N[C@@H](CC(=O)OC(C)(C)C)c1nnc(C)n1-2
In short: as §1

[4] = compound: CC1=C(SC2=C1C(=N[C@H](C3=NN=C(N32)C)CC(=O)N)C4=CC=C(C=C4)Cl)C
In short: as §1

[5] = compound: c1ccc([C@@H]2C[C@H]2NC2CCNCC2)cc1
In short: as §1

Measured: log2 fold change

ARPIN isoform 2 (UniProt Q7Z6K5)
inactive: [1] 0.065 | [2] -0.028 | [3] -0.033

ATE1 (UniProt O95260)
inactive: [4] -0.085 | [2] 0.225 | [3] -0.028 | [5] -0.023

ARL5A (UniProt Q9Y689)
inactive: [1] -0.002 | [4] 0.06 | [3] -0.005 | [5] -0.04

ATP5PB (UniProt P24539)
inactive: [1] 0.043 | [4] 0.02 | [2] 0.013 | [3] -0.049 | [5] 0.007

ATF7IP isoform 4 (UniProt Q6VMQ6)
inactive: [1] -0.241 | [4] 0.001 | [2] 0.149 | [3] 0.207 | [5] 0.045

ATP5PO (UniProt P48047)
inactive: [1] 0.029 | [4] -0.027 | [2] -0.009 | [3] -0.029 | [5] 0.017

ARL6IP1 (UniProt Q15041)
inactive: [1] -0.034 | [4] -0.031 | [2] -0.051 | [3] -0.049 | [5] 0.044

ARPC1A (UniProt Q92747)
inactive: [1] -0.044 | [4] 0.049 | [2] 0.041 | [3] 0.03 | [5] 0.044

ASB6 (UniProt Q9NWX5)
inactive: [1] -0.065 | [2] 0.178

ASCC1 isoform 2 (UniProt Q8N9N2)
inactive: [1] -0.033 | [4] 0.001 | [2] 0 | [3] 0.034 | [5] 0.008

ARL8A (UniProt Q96BM9)
inactive: [1] 0.047 | [4] 0.035 | [2] 0.032 | [3] 0.011 | [5] -0.034

Taken from the entries so far (six entries):
ARL5A (UniProt Q9Y689)
inactive: [1] -0.002 | [4] 0.06 | [3] -0.005 | [5] -0.04

ATP5PB (UniProt P24539)
inactive: [1] 0.043 | [4] 0.02 | [2] 0.013 | [3] -0.049 | [5] 0.007

ATF7IP isoform 4 (UniProt Q6VMQ6)
inactive: [1] -0.241 | [4] 0.001 | [2] 0.149 | [3] 0.207 | [5] 0.045

ATP5PO (UniProt P48047)
inactive: [1] 0.029 | [4] -0.027 | [2] -0.009 | [3] -0.029 | [5] 0.017

ARL6IP1 (UniProt Q15041)
inactive: [1] -0.034 | [4] -0.031 | [2] -0.051 | [3] -0.049 | [5] 0.044

ARPC1A (UniProt Q92747)
inactive: [1] -0.044 | [4] 0.049 | [2] 0.041 | [3] 0.03 | [5] 0.044

Next entries:

ATP2C1 isoform 3 (UniProt P98194)
inactive: [1] -0.076 | [4] 0.03 | [5] -0.057

ATP6AP2 (UniProt O75787)
inactive: [1] 0.021 | [4] 0.075 | [2] -0.008 | [3] -0.01 | [5] -0.062

ARPC5 (UniProt O15511)
inactive: [1] 0.042 | [4] 0.003 | [2] 0.015 | [3] -0.014 | [5] 0.064

ARSK (UniProt Q6UWY0)
inactive: [1] -0.143 | [4] 0.05 | [2] 0.096 | [5] -0.175

ARL6 isoform 2 (UniProt Q9H0F7)
inactive: [2] -0.048

ATP1B3 (UniProt P54709)
inactive: [1] 0.012 | [4] 0.042 | [2] 0.001 | [3] 0.002 | [5] 0.006

ATM (UniProt Q13315)
inactive: [1] 0.031 | [4] 0.107 | [2] 0.066 | [3] -0.137 | [5] -0.006

ATP5F1C (UniProt P36542)
inactive: [1] 0.025 | [4] 0.008 | [2] 0.021 | [3] 0.006 | [5] 0.007

ASXL1 (UniProt Q8IXJ9)
inactive: [1] -0.008 | [4] -0.088 | [3] -0.108 | [5] -0.173

ARL15 (UniProt Q9NXU5)
inactive: [1] 0.001 | [4] 0.121 | [2] 0.033 | [3] -0.092 | [5] -0.008

ATG4A (UniProt Q8WYN0)
inactive: [4] 0.017 | [2] -0.12 | [5] 0.036

ARMC8 isoform 6 (UniProt Q8IUR7)
inactive: [1] 0.053 | [2] 0.088

ATL2 (UniProt Q8NHH9)
inactive: [1] -0.019 | [4] 0.05 | [2] 0.091 | [3] -0.012 | [5] -0.077

ATP2B2 (UniProt Q01814)
inactive: [4] 0.421 | [2] 0.386 | [5] -0.207

ASCC2 (UniProt Q9H1I8)
inactive: [4] -0.263 | [2] -0.069 | [5] -0.033

ARL13B (UniProt Q3SXY8)
inactive: [1] 0.081 | [2] 0.033 | [3] -0.054

ASPH (UniProt Q12797)
inactive: [1] 0.057 | [4] -0.015 | [2] -0.046 | [3] 0.021 | [5] 0.042
